Binding data for 2 molecules are collected here from publication PMC9005747, “Application of per-Residue Energy Decomposition to Design Peptide Inhibitors of PSD95 GK Domain” (Frontiers in Molecular Biosciences, 2022).

The chains behind the UniProt entries cited, without tags or fusion partners. Residues count along the entry.
UniProt P31016, residues 531-713: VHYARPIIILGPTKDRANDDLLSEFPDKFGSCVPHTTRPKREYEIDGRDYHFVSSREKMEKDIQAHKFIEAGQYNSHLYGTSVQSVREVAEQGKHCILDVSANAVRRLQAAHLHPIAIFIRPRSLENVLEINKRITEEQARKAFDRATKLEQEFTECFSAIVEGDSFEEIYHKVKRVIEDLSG

Results are given in words; binding and its absence hold for the method and conditions named. Some results given as binding are weak or reduced against the parent protein; the word gives no strength.

In assay [1] the target is T1, FITC-labeled SAPAP peptide FITC-AARRE(pS)YLKATQ.
T1 sequence (peptide, phosphoserine (pS) at the sixth residue; FITC on the N-terminus): AARRESYLKATQ
The assay can be described thus: fluorescence polarisation; competition: 10 nM FITC-SAPAP, 2 uM PSD95 GK, peptide inhibitors serially diluted (8-point curve); 50 mM Tris, 100 mM NaCl, pH 7.5; 1-h incubation; Ki from IC50 by the formula of Nikolovska-Coleska et al.; both purified. (In fluorescence polarisation assays a small probe gives low polarisation when free and higher when bound to something large.)

Assay [2] concerns the target His6-tagged PSD95 GK domain (a.a. 531-713) (UniProt P31016). The description is as above.

Regarding “His6-tagged PSD95 GK domain (a.a. 531-713) (from UniProt P31016 531-713) (domain or fragment)”, the binding entry in assay [1] is given as “binds”. For AARRESYLKATQ (phosphoserine (pS) at the sixth residue) [free-labeled (unlabeled) SAPAP peptide AARRE(pS)YLKATQ], in assay [2], the binding entry is listed as “binds”.
